Data as given in article PMC6965034.
No constants are given. Whether binding was seen depends on the method and setting. Some results given as binding are weak or reduced against the parent protein; the word gives no strength.

Chains of the proteins cited; added tags and fusions are not shown. Lines headed by an entry give the natural chain unless they say otherwise; changes in a name come on top. Residues count along the entry.
cytoplasmic domain of human sortilin (K779-E831) in fusion with LexA (Q99523, residues 779-831): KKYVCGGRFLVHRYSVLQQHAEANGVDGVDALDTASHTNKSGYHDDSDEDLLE

Columns and labels:
[1] = target: cytoplasmic domain of human sortilin (K779-E831) in fusion with LexA (human) (UniProt Q99523); assay: two-hybrid; one-by-one tests of bait (pB27) and prey plasmids, spot plated on -Leu/-Trp/-His plates with 3-AT; plasmids without inserts as negative controls
[2] = target: sortilin-cd S15A (Ser793 to Ala), yeast two-hybrid bait (human) (UniProt Q99523); assay: as above

binding [1] | binding [2] | Binder
binds | binds | AP-1 adaptor complex subunit μ1A (protein, UniProt Q9BXS5-1 1-423) MSASAVYVLDLKGKVLICRNYRGDVDMSEVEHFMPILMEKEEEGMLSPILAHGGVRFMWIKHNNLYLVATSKKNACVSLVFSFLYKVVQVFSEYFKELEEESIRDNFVIIYELLDELMDFGYPQTTDSKILQEYITQEGHKLETGAPRPPATVTNAVSWRSEGIKYRKNEVFLDVIESVNLLVSANGNVLRSEIVGSIKMRVFLSGMPELRLGLNDKVLFDNTGRGKSKSVELEDVKFHQCVRLSRFENDRTISFIPPDGEFELMSYRLNTHVKPLIWIESVIEKHSHSRIEYMIKAKSQFKRRSTANNVEIHIPVPNDADSPKFKTTVGSVKWVPENSEIVWSIKSFPGGKEYLMRAHFGLPSVEAEDKEGKPPISVKFEIPYFTTSGIQVRYLKIIEKSGYQALPWVRYITQNGDYQLRTQ
binds | binds | AP-1 adaptor complex subunit μ1B (protein, UniProt Q9Y6Q5-1 1-423) MSASAVFILDVKGKPLISRNYKGDVAMSKIEHFMPLLVQREEEGALAPLLSHGQVHFLWIKHSNLYLVATTSKNANASLVYSFLYKTIEVFCEYFKELEEESIRDNFVIVYELLDELMDFGFPQTTDSKILQEYITQQSNKLETGKSRVPPTVTNAVSWRSEGIKYKKNEVFIDVIESVNLLVNANGSVLLSEIVGTIKLKVFLSGMPELRLGLNDRVLFELTGRSKNKSVELEDVKFHQCVRLSRFDNDRTISFIPPDGDFELMSYRLSTQVKPLIWIESVIEKFSHSRVEIMVKAKGQFKKQSVANGVEISVPVPSDADSPRFKTSVGSAKYVPERNVVIWSIKSFPGGKEYLMRAHFGLPSVEKEEVEGRPPIGVKFEIPYFTVSGIQVRYMKIIEKSGYQALPWVRYITQSGDYQLRTS
